{
  "sequences": {"note": "The chains behind the UniProt entries cited, without tags or fusion partners. Where a name states a change or a piece, a line headed by the entry shows the natural chain unless it says otherwise.", "UniProt Q17R31": "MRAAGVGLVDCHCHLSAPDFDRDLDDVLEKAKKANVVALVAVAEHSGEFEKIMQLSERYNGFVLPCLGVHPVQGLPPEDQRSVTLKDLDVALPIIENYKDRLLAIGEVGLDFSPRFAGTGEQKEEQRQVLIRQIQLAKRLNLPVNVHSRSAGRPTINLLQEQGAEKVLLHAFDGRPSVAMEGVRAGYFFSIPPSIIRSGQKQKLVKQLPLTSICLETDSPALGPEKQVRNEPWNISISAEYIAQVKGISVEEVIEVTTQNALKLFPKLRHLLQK", "UniProt O43426, whole entry, looked up": "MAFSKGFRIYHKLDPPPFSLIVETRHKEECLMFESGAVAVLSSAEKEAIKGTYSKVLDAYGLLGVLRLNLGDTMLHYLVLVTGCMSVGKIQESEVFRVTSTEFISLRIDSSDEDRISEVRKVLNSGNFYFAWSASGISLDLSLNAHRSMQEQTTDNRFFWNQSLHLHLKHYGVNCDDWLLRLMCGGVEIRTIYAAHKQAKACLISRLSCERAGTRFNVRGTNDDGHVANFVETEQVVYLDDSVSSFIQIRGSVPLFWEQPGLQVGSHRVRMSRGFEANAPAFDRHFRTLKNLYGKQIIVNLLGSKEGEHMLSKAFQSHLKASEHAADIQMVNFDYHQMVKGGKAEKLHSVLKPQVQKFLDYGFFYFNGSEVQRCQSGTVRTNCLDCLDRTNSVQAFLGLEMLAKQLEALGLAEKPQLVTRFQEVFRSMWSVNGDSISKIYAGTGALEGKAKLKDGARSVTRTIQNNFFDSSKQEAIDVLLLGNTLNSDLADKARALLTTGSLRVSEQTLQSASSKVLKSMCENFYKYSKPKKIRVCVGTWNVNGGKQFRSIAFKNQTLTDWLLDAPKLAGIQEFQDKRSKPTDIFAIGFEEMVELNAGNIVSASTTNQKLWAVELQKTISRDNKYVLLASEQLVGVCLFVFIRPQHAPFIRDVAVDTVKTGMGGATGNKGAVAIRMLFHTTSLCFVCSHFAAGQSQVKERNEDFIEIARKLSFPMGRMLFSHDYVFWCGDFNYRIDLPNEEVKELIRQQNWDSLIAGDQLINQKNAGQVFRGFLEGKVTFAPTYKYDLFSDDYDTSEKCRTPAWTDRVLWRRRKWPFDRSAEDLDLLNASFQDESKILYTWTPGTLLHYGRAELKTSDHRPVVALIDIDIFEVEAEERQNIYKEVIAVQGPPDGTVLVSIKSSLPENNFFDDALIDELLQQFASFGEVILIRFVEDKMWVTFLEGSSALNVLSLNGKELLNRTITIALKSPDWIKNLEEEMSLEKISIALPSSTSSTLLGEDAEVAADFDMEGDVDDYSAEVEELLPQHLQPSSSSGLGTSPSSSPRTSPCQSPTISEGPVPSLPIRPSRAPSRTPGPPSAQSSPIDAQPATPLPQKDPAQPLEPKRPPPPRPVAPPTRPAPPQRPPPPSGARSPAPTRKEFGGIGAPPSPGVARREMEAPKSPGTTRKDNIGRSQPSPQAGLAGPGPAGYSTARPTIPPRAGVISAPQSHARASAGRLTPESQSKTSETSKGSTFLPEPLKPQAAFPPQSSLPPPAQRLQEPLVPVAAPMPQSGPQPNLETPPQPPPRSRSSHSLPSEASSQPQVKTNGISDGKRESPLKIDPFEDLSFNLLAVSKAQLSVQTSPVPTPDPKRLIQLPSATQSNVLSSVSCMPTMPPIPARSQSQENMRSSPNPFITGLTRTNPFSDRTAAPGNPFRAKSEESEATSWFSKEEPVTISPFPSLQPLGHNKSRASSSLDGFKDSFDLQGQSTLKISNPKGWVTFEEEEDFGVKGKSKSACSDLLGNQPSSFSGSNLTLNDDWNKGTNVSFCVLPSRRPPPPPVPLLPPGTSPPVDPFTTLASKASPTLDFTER", "UniProt Q6P1X5, whole entry, looked up": "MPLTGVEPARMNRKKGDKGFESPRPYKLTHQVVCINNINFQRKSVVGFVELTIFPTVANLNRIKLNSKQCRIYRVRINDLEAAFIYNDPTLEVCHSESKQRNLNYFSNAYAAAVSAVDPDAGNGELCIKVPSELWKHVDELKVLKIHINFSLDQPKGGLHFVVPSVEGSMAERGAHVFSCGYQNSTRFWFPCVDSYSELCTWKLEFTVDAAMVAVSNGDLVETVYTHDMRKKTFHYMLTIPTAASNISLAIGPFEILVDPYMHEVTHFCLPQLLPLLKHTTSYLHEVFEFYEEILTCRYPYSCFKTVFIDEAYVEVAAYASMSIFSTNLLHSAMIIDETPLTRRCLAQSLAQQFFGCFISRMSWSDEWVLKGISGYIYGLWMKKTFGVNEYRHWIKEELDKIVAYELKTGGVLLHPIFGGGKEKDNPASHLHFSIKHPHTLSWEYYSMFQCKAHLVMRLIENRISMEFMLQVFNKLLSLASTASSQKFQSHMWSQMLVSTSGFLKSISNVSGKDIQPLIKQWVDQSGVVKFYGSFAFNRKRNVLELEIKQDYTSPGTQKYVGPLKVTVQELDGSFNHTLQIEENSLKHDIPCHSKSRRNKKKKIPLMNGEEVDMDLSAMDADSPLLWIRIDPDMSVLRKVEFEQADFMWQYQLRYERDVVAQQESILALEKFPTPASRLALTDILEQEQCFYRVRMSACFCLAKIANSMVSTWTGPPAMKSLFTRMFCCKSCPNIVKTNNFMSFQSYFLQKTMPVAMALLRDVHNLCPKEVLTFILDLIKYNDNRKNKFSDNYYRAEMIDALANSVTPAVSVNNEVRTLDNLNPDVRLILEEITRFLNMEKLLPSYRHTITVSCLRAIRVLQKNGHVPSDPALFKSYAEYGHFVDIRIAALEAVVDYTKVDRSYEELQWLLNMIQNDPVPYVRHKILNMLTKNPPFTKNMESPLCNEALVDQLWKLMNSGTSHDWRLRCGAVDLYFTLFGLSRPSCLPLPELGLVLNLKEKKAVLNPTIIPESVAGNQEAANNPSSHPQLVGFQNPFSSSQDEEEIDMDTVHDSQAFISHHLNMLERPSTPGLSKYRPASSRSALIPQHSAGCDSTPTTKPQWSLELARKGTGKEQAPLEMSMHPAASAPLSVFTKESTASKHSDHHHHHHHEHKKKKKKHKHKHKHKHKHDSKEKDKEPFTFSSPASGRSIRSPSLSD", "UniProt Q9UBS9": "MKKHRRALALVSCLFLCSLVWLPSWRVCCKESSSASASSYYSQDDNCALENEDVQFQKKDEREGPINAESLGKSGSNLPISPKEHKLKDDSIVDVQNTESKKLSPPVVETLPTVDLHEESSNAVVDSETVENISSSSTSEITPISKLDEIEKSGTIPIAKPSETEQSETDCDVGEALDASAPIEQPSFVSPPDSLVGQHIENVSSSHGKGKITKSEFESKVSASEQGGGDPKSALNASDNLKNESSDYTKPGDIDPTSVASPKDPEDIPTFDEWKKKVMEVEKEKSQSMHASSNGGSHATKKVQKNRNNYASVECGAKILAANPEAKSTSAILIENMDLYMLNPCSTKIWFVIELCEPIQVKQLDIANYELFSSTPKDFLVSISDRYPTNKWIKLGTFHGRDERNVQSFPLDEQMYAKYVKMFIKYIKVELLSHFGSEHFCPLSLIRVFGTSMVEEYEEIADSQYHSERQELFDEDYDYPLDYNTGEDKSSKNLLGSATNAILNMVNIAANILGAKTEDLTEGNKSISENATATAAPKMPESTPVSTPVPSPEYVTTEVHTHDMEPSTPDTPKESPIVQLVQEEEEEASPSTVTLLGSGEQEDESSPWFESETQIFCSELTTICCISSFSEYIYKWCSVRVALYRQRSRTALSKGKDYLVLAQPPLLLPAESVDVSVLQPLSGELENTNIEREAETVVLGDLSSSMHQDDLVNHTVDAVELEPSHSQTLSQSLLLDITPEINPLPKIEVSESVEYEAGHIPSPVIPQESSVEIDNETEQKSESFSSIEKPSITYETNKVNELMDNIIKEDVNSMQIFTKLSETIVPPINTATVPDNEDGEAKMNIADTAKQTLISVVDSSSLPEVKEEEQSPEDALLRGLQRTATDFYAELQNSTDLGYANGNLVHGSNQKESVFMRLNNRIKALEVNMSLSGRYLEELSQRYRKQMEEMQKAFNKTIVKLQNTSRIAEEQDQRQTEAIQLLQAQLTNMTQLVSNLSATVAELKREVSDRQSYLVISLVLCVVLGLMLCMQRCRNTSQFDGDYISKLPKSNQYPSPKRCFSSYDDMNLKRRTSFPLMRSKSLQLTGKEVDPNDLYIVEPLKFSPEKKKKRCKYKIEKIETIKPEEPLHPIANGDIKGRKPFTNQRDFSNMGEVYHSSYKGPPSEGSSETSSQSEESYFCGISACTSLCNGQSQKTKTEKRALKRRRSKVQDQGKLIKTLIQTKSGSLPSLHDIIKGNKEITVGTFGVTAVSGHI", "UniProt P37802": "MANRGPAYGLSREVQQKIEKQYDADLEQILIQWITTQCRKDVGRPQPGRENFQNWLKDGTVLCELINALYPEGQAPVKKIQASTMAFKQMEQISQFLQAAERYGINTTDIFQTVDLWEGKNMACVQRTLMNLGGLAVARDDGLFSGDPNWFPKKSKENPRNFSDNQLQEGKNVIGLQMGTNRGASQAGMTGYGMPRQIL", "UniProt Q5VSL9": "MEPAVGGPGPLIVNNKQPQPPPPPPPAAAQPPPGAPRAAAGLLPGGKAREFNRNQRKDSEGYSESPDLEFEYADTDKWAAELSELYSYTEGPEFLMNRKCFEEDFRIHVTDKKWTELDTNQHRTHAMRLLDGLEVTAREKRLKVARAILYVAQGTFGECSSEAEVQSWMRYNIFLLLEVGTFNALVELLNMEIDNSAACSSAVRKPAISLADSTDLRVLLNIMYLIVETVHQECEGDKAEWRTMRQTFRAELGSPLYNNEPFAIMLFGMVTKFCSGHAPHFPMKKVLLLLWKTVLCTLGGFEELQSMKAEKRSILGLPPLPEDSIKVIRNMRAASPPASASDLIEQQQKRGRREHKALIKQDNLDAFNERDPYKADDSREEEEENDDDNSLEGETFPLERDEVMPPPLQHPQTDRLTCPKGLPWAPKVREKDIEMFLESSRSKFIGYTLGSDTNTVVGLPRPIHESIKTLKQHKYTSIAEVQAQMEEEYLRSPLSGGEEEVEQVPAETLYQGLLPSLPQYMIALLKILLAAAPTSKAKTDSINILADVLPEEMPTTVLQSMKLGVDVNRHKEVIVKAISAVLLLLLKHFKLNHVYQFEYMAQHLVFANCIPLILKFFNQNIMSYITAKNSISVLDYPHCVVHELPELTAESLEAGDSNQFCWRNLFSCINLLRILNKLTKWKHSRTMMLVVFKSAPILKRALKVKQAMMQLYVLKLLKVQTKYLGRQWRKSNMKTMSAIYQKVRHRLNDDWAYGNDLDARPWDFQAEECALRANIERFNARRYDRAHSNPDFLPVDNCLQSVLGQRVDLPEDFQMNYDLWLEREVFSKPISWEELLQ", "UniProt Q6NXT6": "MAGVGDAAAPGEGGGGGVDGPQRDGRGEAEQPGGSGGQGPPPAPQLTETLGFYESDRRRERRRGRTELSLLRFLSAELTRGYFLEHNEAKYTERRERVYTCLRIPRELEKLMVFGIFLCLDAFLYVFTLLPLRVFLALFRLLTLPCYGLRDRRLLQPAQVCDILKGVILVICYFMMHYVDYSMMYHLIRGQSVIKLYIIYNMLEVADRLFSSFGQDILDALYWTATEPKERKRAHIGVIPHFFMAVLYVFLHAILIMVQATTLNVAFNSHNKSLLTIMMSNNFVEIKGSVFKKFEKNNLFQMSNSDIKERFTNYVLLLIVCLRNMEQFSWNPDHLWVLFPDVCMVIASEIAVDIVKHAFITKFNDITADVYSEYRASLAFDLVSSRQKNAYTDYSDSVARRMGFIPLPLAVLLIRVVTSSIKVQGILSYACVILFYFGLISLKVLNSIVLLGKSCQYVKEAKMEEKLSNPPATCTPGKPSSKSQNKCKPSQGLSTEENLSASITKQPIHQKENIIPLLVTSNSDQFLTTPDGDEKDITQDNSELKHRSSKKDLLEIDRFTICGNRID", "UniProt Q9Y2Z0": "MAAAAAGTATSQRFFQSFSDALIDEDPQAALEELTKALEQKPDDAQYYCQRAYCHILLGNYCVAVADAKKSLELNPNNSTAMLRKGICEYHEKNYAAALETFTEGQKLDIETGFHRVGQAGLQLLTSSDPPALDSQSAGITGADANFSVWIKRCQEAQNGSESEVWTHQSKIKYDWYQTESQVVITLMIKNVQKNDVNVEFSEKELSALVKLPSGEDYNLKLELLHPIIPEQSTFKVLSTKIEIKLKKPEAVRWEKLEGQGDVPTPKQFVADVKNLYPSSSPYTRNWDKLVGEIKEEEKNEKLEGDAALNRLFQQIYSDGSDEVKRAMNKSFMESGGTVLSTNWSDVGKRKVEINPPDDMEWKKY", "UniProt Q8N300": "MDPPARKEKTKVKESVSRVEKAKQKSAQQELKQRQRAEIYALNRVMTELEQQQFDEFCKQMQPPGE", "UniProt Q7Z422": "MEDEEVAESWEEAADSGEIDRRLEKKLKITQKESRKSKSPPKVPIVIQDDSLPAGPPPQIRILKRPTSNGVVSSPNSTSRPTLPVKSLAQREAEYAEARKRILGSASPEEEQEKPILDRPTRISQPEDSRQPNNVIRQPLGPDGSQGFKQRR"},
  "source": "the supplement of paper PMC10849652",
  "note": "This is one part of the list.",
  "data": [
    {"compound": "NCC(=O)Nc1ccc(-n2nc(C(F)(F)F)cc2-c2ccc3c(ccc4ccccc43)c2)cc1", "assay": "log2 fold change, soluble protein after heating vs DMSO (PISA); higher = thermal stabilisation; K562 cells, 10 uM, 30 min; active = over 0.2 and 3.5 SD of the protein, either way, in both replicates (recomputed)", "in_short": "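Thermal stability values are relative to control samples and come from duplicates. They are expressed as log2 fold changes. For measurement, K562 cells (2×10^6 cells/mL) received 10 μM compound for 30 min, and aliquots were heated for 3 min over 48°C-58°C, pooled, and extracted at 4°C in PBS with 0.5% NP-40. Soluble protein, the supernatant after 21,000xg for 90 min, was quantified by TMTpro 16plex LC-MS/MS with equalised channel sums.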", "values": [
      {"target": "TATDN3 isoform 3 (UniProt Q17R31)", "log2 fold change": "inactive: -0.15"},
      {"target": "SYNJ1 (UniProt O43426)", "log2 fold change": "inactive: -0.017"},
      {"target": "SYNJ2BP-COX16, A0A087WYV9", "log2 fold change": "inactive: -0.004"},
      {"target": "STX10 (UniProt O60499)", "log2 fold change": "inactive: -0.022"},
      {"target": "SYNGR2 (UniProt O43760)", "log2 fold change": "inactive: -0.006"},
      {"target": "SYNRG (UniProt Q9UMZ2)", "log2 fold change": "inactive: -0.023"},
      {"target": "SUCLG2 (UniProt Q96I99)", "log2 fold change": "inactive: -0.028"},
      {"target": "TAF2 (UniProt Q6P1X5)", "log2 fold change": "inactive: 0.03"},
      {"target": "STT3A (UniProt P46977)", "log2 fold change": "inactive: -0.029"},
      {"target": "SUCO (UniProt Q9UBS9)", "log2 fold change": "inactive: -0.154"},
      {"target": "STT3B (UniProt Q8TCJ2)", "log2 fold change": "inactive: 0.061"},
      {"target": "TAGLN2 isoform 2 (UniProt P37802)", "log2 fold change": "inactive: 0.016"},
      {"target": "STRN4 isoform 3 (UniProt Q9NRL3)", "log2 fold change": "inactive: -0.018"},
      {"target": "STRIP1 (UniProt Q5VSL9)", "log2 fold change": "inactive: 0.038"},
      {"target": "TAF10 (UniProt Q12962)", "log2 fold change": "inactive: 0.101"},
      {"target": "SUPV3L1 (UniProt Q8IYB8)", "log2 fold change": "inactive: -0.033"},
      {"target": "TACO1 (UniProt Q9BSH4)", "log2 fold change": "inactive: 0.026"},
      {"target": "SYAP1 (UniProt Q96A49)", "log2 fold change": "inactive: 0.024"},
      {"target": "TARDBP (UniProt Q13148)", "log2 fold change": "inactive: -0.042"},
      {"target": "STXBP1 (UniProt P61764)", "log2 fold change": "inactive: -0.086"},
      {"target": "TAPT1 (UniProt Q6NXT6)", "log2 fold change": "inactive: 0"},
      {"target": "TACC3 (UniProt Q9Y6A5)", "log2 fold change": "inactive: -0.002"},
      {"target": "STX5 (UniProt Q13190)", "log2 fold change": "inactive: -0.065"},
      {"target": "STMN1 (UniProt P16949)", "log2 fold change": "inactive: 0.022"},
      {"target": "TAF7 (UniProt Q15545)", "log2 fold change": "inactive: 0.062"},
      {"target": "SUGT1 (UniProt Q9Y2Z0)", "log2 fold change": "inactive: -0.009"},
      {"target": "TAB1 (UniProt Q15750)", "log2 fold change": "inactive: -0.116"},
      {"target": "SVBP (UniProt Q8N300)", "log2 fold change": "inactive: 0.099"},
      {"target": "SYNCRIP (UniProt O60506)", "log2 fold change": "inactive: 0.032"},
      {"target": "SZRD1 (UniProt Q7Z422)", "log2 fold change": "inactive: -0.055"},
      {"target": "TARSL2 (UniProt A2RTX5)", "log2 fold change": "inactive: -0.064"},
      {"target": "SYVN1 (UniProt Q86TM6)", "log2 fold change": "inactive: -0.06"},
      {"target": "TAF8 isoform 2 (UniProt Q7Z7C8)", "log2 fold change": "inactive: 0.028"},
      {"target": "STX16 isoform 2 (UniProt O14662)", "log2 fold change": "inactive: 0.026"},
      {"target": "TAF15 (UniProt Q92804)", "log2 fold change": "inactive: -0.018"},
      {"target": "TANGO2 isoform 4 (UniProt Q6ICL3)", "log2 fold change": "inactive: -0.022"},
      {"target": "STX12 (UniProt Q86Y82)", "log2 fold change": "inactive: 0.024"},
      {"target": "STRIP2 (UniProt Q9ULQ0)", "log2 fold change": "inactive: -0.016"},
      {"target": "STRADA (UniProt Q7RTN6)", "log2 fold change": "inactive: -0.004"}
    ]}
  ]
}
